Results as given in PMC5907460.
These are yes or no findings as the source states them, for the method shown. In cells and extracts the contact can be indirect. Some binding calls cover weakened binding; strength is not graded here.

Amino acid sequences for entries named in this document (tags omitted).
UniProt Q9NZI8: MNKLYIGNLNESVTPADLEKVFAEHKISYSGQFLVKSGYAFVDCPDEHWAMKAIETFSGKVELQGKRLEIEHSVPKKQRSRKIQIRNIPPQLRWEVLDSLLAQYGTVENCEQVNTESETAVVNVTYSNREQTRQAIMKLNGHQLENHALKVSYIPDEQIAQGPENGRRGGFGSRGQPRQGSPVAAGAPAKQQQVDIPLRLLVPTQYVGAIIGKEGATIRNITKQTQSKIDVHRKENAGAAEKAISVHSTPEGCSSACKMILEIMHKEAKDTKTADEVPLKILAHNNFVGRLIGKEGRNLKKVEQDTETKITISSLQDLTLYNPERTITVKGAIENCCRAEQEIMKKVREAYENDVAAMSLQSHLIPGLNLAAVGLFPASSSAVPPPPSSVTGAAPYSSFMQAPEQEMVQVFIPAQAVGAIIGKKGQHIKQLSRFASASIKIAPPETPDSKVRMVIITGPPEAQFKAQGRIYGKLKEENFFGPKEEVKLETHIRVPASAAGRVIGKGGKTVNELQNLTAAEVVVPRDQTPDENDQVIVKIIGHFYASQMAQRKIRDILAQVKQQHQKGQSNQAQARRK
UniProt A5YKK6: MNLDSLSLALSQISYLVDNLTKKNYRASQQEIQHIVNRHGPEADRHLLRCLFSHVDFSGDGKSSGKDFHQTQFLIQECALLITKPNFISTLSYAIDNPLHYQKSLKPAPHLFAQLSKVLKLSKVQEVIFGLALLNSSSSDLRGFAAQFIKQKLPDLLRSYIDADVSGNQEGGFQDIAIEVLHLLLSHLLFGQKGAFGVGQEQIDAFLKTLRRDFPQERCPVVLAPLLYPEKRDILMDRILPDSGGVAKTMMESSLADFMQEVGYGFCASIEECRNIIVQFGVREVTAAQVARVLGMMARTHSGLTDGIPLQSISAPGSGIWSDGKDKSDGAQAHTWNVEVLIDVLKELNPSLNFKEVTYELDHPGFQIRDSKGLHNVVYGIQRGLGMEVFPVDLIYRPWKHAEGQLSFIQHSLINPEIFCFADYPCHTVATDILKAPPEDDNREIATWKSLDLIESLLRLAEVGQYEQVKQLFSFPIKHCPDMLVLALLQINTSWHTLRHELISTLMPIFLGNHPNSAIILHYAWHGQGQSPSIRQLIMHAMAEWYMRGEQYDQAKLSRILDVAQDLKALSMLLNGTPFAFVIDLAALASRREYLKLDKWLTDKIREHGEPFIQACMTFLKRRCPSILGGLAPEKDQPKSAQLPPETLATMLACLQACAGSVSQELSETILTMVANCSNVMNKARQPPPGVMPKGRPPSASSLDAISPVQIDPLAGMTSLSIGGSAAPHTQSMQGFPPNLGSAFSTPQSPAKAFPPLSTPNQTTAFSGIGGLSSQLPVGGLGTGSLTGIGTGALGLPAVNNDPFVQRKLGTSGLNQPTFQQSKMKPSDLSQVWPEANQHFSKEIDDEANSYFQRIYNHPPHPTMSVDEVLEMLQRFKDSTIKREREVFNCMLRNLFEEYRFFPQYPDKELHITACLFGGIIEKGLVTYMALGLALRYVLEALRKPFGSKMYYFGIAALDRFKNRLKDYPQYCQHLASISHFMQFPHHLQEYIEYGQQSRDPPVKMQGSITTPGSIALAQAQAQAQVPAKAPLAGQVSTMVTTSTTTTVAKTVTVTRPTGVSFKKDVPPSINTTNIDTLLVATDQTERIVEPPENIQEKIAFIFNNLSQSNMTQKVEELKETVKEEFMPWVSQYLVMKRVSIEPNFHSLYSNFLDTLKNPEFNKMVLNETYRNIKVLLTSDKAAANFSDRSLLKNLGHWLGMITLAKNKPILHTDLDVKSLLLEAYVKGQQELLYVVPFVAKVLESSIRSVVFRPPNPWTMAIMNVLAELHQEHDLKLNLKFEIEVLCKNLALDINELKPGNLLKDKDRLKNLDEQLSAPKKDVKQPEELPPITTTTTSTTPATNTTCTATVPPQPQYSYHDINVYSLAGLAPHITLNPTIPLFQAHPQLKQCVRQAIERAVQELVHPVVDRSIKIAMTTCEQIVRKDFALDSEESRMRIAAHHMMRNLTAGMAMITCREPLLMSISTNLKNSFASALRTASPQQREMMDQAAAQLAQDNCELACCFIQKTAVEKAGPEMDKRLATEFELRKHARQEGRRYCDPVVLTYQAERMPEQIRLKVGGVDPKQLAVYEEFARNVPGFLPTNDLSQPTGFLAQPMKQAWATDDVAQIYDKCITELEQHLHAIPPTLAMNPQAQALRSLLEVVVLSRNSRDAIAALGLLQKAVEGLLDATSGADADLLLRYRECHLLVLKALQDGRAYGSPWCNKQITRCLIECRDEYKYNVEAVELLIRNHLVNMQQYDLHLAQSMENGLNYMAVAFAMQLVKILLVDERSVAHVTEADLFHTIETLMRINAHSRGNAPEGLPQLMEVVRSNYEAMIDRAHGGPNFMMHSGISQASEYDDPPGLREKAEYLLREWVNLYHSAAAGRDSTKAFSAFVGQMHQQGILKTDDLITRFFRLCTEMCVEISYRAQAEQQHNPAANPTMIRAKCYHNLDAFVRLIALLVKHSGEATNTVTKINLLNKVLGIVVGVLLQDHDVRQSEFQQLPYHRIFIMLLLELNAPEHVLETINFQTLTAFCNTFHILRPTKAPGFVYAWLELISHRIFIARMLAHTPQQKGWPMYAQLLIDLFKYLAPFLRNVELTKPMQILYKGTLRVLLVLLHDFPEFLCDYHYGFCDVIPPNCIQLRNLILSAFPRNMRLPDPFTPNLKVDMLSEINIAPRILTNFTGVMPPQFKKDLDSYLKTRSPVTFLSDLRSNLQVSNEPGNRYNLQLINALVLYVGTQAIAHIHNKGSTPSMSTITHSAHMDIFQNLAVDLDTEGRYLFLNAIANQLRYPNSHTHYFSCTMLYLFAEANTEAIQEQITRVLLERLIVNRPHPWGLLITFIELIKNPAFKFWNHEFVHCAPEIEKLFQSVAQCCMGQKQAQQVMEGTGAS

Biological target: Flag-tagged IMP1-GFP (insulin-like growth factor 2 messenger RNA binding protein, IMP1) (UniProt Q9NZI8)
Experiment: co-IP; immunoprecipitation with GFP antibody on protein A agarose from lysates of MDA231/IMP1-GFP and MDA231/GFP cells (20 mM Tris-HCl pH 7.5, 50 mM NaCl, 5 mM MgCl2, 0.5% NP-40, with RNasin, 4 °C, 4 h); CNOT1 detected by immunoblot

binding: binds
Substance: CNOT1, a scaffold protein of the CCR4-NOT complex (from UniProt A5YKK6 1-2376)
